These are yes or no findings as the source states them, for the method shown. In cells and extracts the contact can be indirect. Some results given as binding are weak or reduced against the parent protein; the word gives no strength.
Target: T1, Tribbles homolog 3 (TRIB3) (mouse (endogenous in CAAs derived from 3T3-L1 adipocytes)) (UniProt Q8K4K2)
T1 sequence: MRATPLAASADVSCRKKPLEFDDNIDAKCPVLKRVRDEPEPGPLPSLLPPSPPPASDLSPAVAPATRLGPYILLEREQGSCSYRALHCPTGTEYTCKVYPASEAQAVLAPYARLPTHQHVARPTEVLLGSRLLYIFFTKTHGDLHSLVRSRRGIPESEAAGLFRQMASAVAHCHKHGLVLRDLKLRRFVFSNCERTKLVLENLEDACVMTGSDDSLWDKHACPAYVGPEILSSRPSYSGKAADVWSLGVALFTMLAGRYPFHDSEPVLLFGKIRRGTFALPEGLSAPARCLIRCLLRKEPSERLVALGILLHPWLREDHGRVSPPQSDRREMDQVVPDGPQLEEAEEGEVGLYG
Test: co-IP; anti-TRIB3 or anti-CEBPβ antibodies on extracts prepared from CAAs; TRIB3 or CEBPβ in the IPs detected by immunoblotting

The chains behind the UniProt entries cited, without tags or fusion partners.
UniProt P28033: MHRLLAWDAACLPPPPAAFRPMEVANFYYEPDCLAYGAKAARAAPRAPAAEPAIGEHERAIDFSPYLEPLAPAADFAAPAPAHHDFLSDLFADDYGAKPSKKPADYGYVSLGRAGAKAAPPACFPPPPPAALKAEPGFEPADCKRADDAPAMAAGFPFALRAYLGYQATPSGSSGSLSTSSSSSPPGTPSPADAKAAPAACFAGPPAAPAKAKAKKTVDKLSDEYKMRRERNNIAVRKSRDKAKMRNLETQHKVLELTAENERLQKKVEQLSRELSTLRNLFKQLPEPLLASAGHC

binding: binds
Substance: CEBPβ (from UniProt P28033 1-296)

— publication PMC11668853
